PubChem BioAssay AID504744 | Drosophila RNAi Screening Center, 2011
Purpose: 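Uncover factors, including feedback loops, that control dAkt activation in fly cells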 (primary screen). System: Drosophila Kc167 cells. Reagents: long dsRNA against Drosophila genes, 250 ng dsRNA per well of a 384-well plate. Duration: 3 days of knock-down, then overnight serum-free starvation before stimulation. Treatment: bovine insulin at 387 nM for 10 minutes after 12 h without serum. Measurement: 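Per-well phospho-dAkt level from an in-cell fluorescent antibody stain, divided by a DNA-dye signal; log2 residuals turned into z-scores that take cell number into account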. Call rule: 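Hit in the insulin screen when the two-replicate mean z-score is more extreme than plus or minus 2.5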.
The screen tested about 23,000 reagents; shown is a random part of those that have a named target and a result. Of all reagents, 98 (0.43%) were called active. 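Only hit calls are given; the phospho-dAkt signals, z-scores and hit direction were not deposited.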 Names joined by + are all predicted targets of the reagent.

no.	gene	PubChem SID	activity call
1	Prosbeta4R2 (GeneID 33451)	SID104180295	inactive
2	CR12628 + Mgstl	SID104183494	inactive
3	CR12628 + Mgstl	SID104200360	inactive
4	Samuel (GeneID 34530)	SID104181948	inactive
5	Samuel (GeneID 34530)	SID104182193	inactive
6	Samuel (GeneID 34530)	SID104182194	inactive
7	Samuel (GeneID 34530)	SID104201402	inactive
8	CG7903 (GeneID 43554)	SID104196130	inactive
9	CG6179 (GeneID 32819)	SID104199765	inactive
10	CG17721 (GeneID 41354)	SID104195045	inactive
11	CG5612 (GeneID 43316)	SID104195636	inactive
12	CG31717 (GeneID 318911)	SID104180913	inactive
13	RpL38 (GeneID 3355144)	SID104187610	inactive
14	CG30151 (GeneID 246484)	SID104185680	inactive
15	Or94a (GeneID 42711)	SID104196564	inactive
16	hebe (GeneID 36011)	SID104184984	inactive
17	hebe (GeneID 36011)	SID104186397	inactive
18	hebe (GeneID 36011)	SID104201314	inactive
19	GC (GeneID 38194)	SID104188188	inactive
20	Tsp39D (GeneID 35405)	SID104182891	inactive
21	RhoGAP68F (GeneID 39385)	SID104190509	inactive
22	zye (GeneID 40255)	SID104191576	inactive
23	CG33301 (GeneID 2768917)	SID104182570	inactive
24	Swim (GeneID 37537)	SID104184126	inactive
25	CG12078 (GeneID 38401)	SID104188034	inactive
26	Sprn (GeneID 39344)	SID104189924	inactive
27	CG34425 (GeneID 5740837)	SID104192002	inactive
28	CG34425 (GeneID 5740837)	SID104201819	inactive
29	Ndc80 (GeneID 32316)	SID104200013	inactive
30	Ndc80 (GeneID 32316)	SID104201398	inactive
31	CG3556 (GeneID 31380)	SID104198101	inactive
32	CG15449 (GeneID 33079)	SID104200313	inactive
33	CG17159 + CG17162	SID104200691	inactive
34	CG17159 + CG17162	SID104200692	inactive
35	CG34253 (GeneID 5740501)	SID104189323	inactive
36	CG42748 (GeneID 35442)	SID104183504	inactive
37	CG42748 (GeneID 35442)	SID104183505	inactive
38	CG42748 (GeneID 35442)	SID104183526	inactive
39	Pde6 (GeneID 41760)	SID104196193	inactive
40	Pde6 (GeneID 41760)	SID104196194	inactive
41	Pde6 (GeneID 41760)	SID104196195	inactive
42	Tak1 (GeneID 39659)	SID104200182	active
43	Tak1 (GeneID 39659)	SID104200353	inactive
44	Tak1 (GeneID 39659)	SID104200354	inactive
45	upd3 (GeneID 3346149)	SID104199428	inactive
46	upd3 (GeneID 3346149)	SID104199760	inactive
47	upd3 (GeneID 3346149)	SID104201715	inactive
48	CG10038 (GeneID 41495)	SID104193970	inactive
49	CG10909 (GeneID 41581)	SID104194074	inactive
50	PIG-O (GeneID 37118)	SID104185915	inactive
51	Gmppb (GeneID 40599)	SID104191961	inactive
52	Smyd4-3 (GeneID 36234)	SID104186833	inactive
53	ERp44 (GeneID 32588)	SID104200007	inactive
54	TpnC73F (GeneID 39916)	SID104191099	inactive
55	CG11298 (GeneID 37553)	SID104183892	inactive
56	Adi1 (GeneID 326189)	SID104190737	inactive
57	Adi1 (GeneID 326189)	SID104201215	inactive
58	Rala (GeneID 31332)	SID104198495	inactive
59	Dbx (GeneID 38254)	SID104188062	inactive
60	Dbx (GeneID 38254)	SID104188063	inactive
61	Dbx (GeneID 38254)	SID104188186	inactive
62	CG3500 (GeneID 37697)	SID104184171	inactive
63	Gr5a (GeneID 44873)	SID104197877	inactive
64	CG14589 (GeneID 35541)	SID104184658	inactive
65	Cpr51A (GeneID 36613)	SID104185761	inactive
66	Prosbeta3 (GeneID 41079)	SID104196593	inactive
67	Pgant35A (GeneID 48775)	SID104183349	inactive
68	lectin-46Cb (GeneID 53522)	SID104186403	inactive
69	msn (GeneID 44030)	SID104187782	inactive
70	msn (GeneID 44030)	SID104188290	inactive
71	Alp9 (GeneID 38633)	SID104190278	inactive
72	CG15043 (GeneID 32835)	SID104199411	inactive
73	CG15484 (GeneID 34682)	SID104182286	inactive
74	CG15484 (GeneID 34682)	SID104202195	inactive
75	Ccdc114 (GeneID 42024)	SID104194817	inactive
76	CCHa1 (GeneID 41711)	SID104194613	inactive
77	Cpr65Ay (GeneID 5740348)	SID104188588	inactive
78	CG13280 (GeneID 35015)	SID104182045	inactive
79	CG32037 (GeneID 326183)	SID104190155	inactive
80	CG2150 (GeneID 43745)	SID104195212	inactive
81	CG42564 (GeneID 40788)	SID104192310	inactive
82	CG42288 (GeneID 36559)	SID104186173	inactive
83	Spp (GeneID 33227)	SID104180120	inactive
84	CG9839 (GeneID 41055)	SID104196366	inactive
85	CG3597 (GeneID 33420)	SID104180409	inactive
86	Cpr76Bb (GeneID 40121)	SID104190853	inactive
87	Cpr76Bb (GeneID 40121)	SID104202229	inactive
88	sano (GeneID 37185)	SID104185957	inactive
89	Snap25 (GeneID 3355084)	SID104201020	inactive
90	Snap25 (GeneID 3355084)	SID104201028	inactive
91	CG42331 (GeneID 42948)	SID104194425	inactive
92	CG42331 (GeneID 42948)	SID104195918	inactive
93	yps (GeneID 39377)	SID104191203	inactive
94	CG13046 (GeneID 39791)	SID104189719	inactive
95	Rrp46 (GeneID 41270)	SID104195329	inactive
96	nocte (GeneID 31976)	SID104197915	inactive
97	CG31528 (GeneID 318785)	SID104191795	inactive
98	Est-P (GeneID 39393)	SID104190955	inactive
99	wkd (GeneID 41390)	SID104195569	inactive
100	unc (GeneID 33093)	SID104200303	inactive
101	crm (GeneID 31268)	SID104198546	inactive
102	Sirt1 (GeneID 34708)	SID104183227	inactive
103	TotB (GeneID 42474)	SID104195634	inactive
104	CG14451 (GeneID 40488)	SID104191500	inactive
105	CR31032 (GeneID 5740822)	SID104201921	inactive
106	CG7296 (GeneID 34469)	SID104182834	inactive
107	CG7296 (GeneID 34469)	SID104201838	inactive

Called active, of those listed so far:
gene	PubChem SID	activity call
Tak1 (GeneID 39659)	SID104200182	active
